In the supplement of paper PMC7238544:
Structures can show the parent of a compound that is named as a salt. ± gives the standard deviation of the averaged measurements. The list shows a part of the results. The data scatter; read single values as rough.

Experiments:
hAMSC donor 1 [1] = test: Hoechst total cell count ratio vs vehicle control; higher = more cells (less toxicity)
hAMSC donor 2 [2] = test: as above
hAMSC donor 1 [3] = test: transgenic luciferase activity (RLU/mg protein) fold change vs vehicle control (ratio); higher = more transgene expression
hAMSC donor 2 [4] = test: as above
hAMSC donor 1 [5] = test: transfection efficiency (EGFP+ cells / Hoechst count) fold change vs vehicle control (ratio); hAMSC are human adipose-derived mesenchymal stem cells given an EGFP-luciferase plasmid by lipofection; higher = enhanced transfection
hAMSC donor 2 [6] = test: as above
[7] = priming compound concentration 0.2 µM
[8] = priming compound concentration 1.7 µM
[9] = priming compound concentration 13 µM

SMILES	Hoechst total cell count ratio (hAMSC donor 1 [1]; [7])	Hoechst total cell count ratio (hAMSC donor 1 [1]; [8])	Hoechst total cell count ratio (hAMSC donor 1 [1]; [9])	Hoechst total cell count ratio (hAMSC donor 2 [2]; [7])	Hoechst total cell count ratio (hAMSC donor 2 [2]; [8])	Hoechst total cell count ratio (hAMSC donor 2 [2]; [9])	transgenic luciferase activity (hAMSC donor 1 [3]; [8])	transgenic luciferase activity (hAMSC donor 2 [4]; [7])	transgenic luciferase activity (hAMSC donor 2 [4]; [8])	transgenic luciferase activity (hAMSC donor 2 [4]; [9])	transfection efficiency (hAMSC donor 1 [5]; [7])	transfection efficiency (hAMSC donor 1 [5]; [8])	transfection efficiency (hAMSC donor 1 [5]; [9])	transfection efficiency (hAMSC donor 2 [6]; [7])	transfection efficiency (hAMSC donor 2 [6]; [8])	transfection efficiency (hAMSC donor 2 [6]; [9])	transgenic luciferase activity (hAMSC donor 1 [3]; [9])
CN1C(C(=O)Nc2ccccn2)=C(O)c2ccccc2S1(=O)=O [Piroxicam]	1.03 ± 0.096	0.797 ± 0.088	0.635 ± 0.063	1.66 ± 0.79	1.1 ± 0.066	0.782 ± 0.25	4.06 ± 1.3	0.703 ± 0.17	0.475 ± 0.031	0.0793 ± 0.055	1.45 ± 0.18	2.27 ± 0.21	2.13 ± 0.47	1.24 ± 0.017	0.98 ± 0.05	0.787 ± 0.12	
Nc1nc2ccc(Cl)cc2c2nc(-c3ccco3)nn12	1.31 ± 0.093	1.32 ± 0.24	1.85 ± 0.3	1.3 ± 0.14	1.5 ± 0.022	1.57 ± 0.14	1.64 ± 0.23		0.9 ± 0.29	0.521 ± 0.012	0.682 ± 0.12	0.695 ± 0.25	0.509 ± 0.086	0.981 ± 0.17	0.86 ± 0.053	0.672 ± 0.13	
CC(C)(C(=O)c1cccnc1)c1cccnc1 [Metyrapone]	1.03 ± 0.17	0.806 ± 0.032	0.932 ± 0.079	1.14 ± 0.073	0.984 ± 0.11	1.32 ± 0.14		0.836 ± 0.15		0.572 ± 0.093	1.03 ± 0.078	1.27 ± 0.28	1.17 ± 0.3	1.26 ± 0.098	1.029 ± 0.0044	0.898 ± 0.11	1.4 ± 0.35
Clc1ccccc1C(c1ccccc1)(c1ccccc1)n1ccnc1 [Clotrimazole]	1.23 ± 0.064	1.29 ± 0.036	1.19 ± 0.18	0.94 ± 0.033	1.32 ± 0.098	1.19 ± 0.079	1.32 ± 0.36		0.757 ± 0.1	0.733 ± 0.2	1.05 ± 0.21	1.22 ± 0.3	1.29 ± 0.35	1.18 ± 0.27	0.947 ± 0.044	1.03 ± 0.12	
CCCc1nc2c(C)cc(-c3nc4ccccc4n3C)cc2n1Cc1ccc(-c2ccccc2C(=O)O)cc1 [Telmisartan]	1.27 ± 0.056	1.25 ± 0.22	1.2 ± 0.047	1.11 ± 0.21	1.06 ± 0.095	0.986 ± 0.18	0.974 ± 0.42		0.437 ± 0.38	0.903 ± 0.07	0.972 ± 0.22	0.857 ± 0.15	1.61 ± 0.41	0.753 ± 0.089	0.976 ± 0.07	0.982 ± 0.11	
Cc1nc2ccccn2c(=O)c1CCN1CCC(C(=O)c2ccc(F)cc2)CC1 [Pirenperone]	1.22 ± 0.32	1.21 ± 0.15	1.64 ± 0.25	1.02 ± 0.13	1.42 ± 0.1	1.44 ± 0.088	0.763 ± 0.29		0.923 ± 0.042	0.56 ± 0.11	0.926 ± 0.36	1.07 ± 0.26	0.623 ± 0.23	1.27 ± 0.28	1.18 ± 0.038	0.793 ± 0.063	
CC(C)(C)NCC(O)c1cc(O)cc(O)c1 (configuration not stated) [Terbutaline sulfate]	1.05 ± 0.045	0.747 ± 0.17	1.11 ± 0.11	1.12 ± 0.066	1.21 ± 0.15	1.3 ± 0.087		0.631 ± 0.072		0.351 ± 0.094	0.969 ± 0.32	1.14 ± 0.3	0.713 ± 0.14	1.14 ± 0.099	0.85 ± 0.2	0.993 ± 0.069	1.07 ± 0.08
Cc1onc(-c2ccccc2)c1C(=O)N[C@@H]1C(=O)N2[C@@H]1SC(C)(C)[C@@H]2C(=O)O [Oxacillin sodium]	1.3 ± 0.14	1.55 ± 0.21	1.09 ± 0.17	1.12 ± 0.054	1.15 ± 0.12	1.21 ± 0.041		0.564 ± 0.045	0.658 ± 0.034	0.652 ± 0.13	0.929 ± 0.21	0.865 ± 0.28	1.7 ± 0.39	0.853 ± 0.18	0.895 ± 0.12	0.833 ± 0.042	1.37 ± 0.24
CCN(CC)CC(=O)Nc1c(C)cccc1C [Lidocaine]	0.986 ± 0.058	1.07 ± 0.052	0.99 ± 0.14	1.29 ± 0.058	1.34 ± 0.067	1.24 ± 0.2	1.22 ± 0.91		0.34 ± 0.16	0.685 ± 0.2	1.2 ± 0.22	0.811 ± 0.09	1.09 ± 0.26	0.902 ± 0.046	0.866 ± 0.017	1.08 ± 0.24	
CC/C(=C(\c1ccccc1)c1ccc(OCCN(C)C)cc1)c1ccccc1 [Tamoxifen]	1.25 ± 0.084	1.58 ± 0.26	1.352 ± 0.005	1.15 ± 0.12	1.26 ± 0.089	1.65 ± 0.12		0.802 ± 0.16		0.437 ± 0.023	0.966 ± 0.46	0.706 ± 0.3	0.608 ± 0.064	1.09 ± 0.048	0.822 ± 0.11	0.581 ± 0.074	0.459 ± 0.13
O=C1CC2(CCCC2)CC(=O)N1CCCCN1CCN(c2ncccn2)CC1 [Buspirone hydrochloride]	1.31 ± 0.098	1.92 ± 0.38	1.38 ± 0.14	1.08 ± 0.088	1.06 ± 0.063	1.32 ± 0.14		0.597 ± 0.21		1.04 ± 0.026	0.941 ± 0.15	0.748 ± 0.069	1.19 ± 0.1	1.1 ± 0.18	0.887 ± 0.049	1.09 ± 0.18	1.27 ± 0.54
C=C1/C(=C\C=C2/CCC[C@]3(C)[C@@H]([C@H](C)CCCC(C)(C)O)CC[C@@H]23)C[C@@H](O)C[C@@H]1O [Calcitriol]	1.26 ± 0.13	1.11 ± 0.036	0.843 ± 0.083	1.09 ± 0.15	0.878 ± 0.059	1.1 ± 0.078	1.5 ± 0.51	1.67 ± 0.093	1.6 ± 0.093		0.706 ± 0.15	0.91 ± 0.13	1.34 ± 0.46	1.4 ± 0.21	1.53 ± 0.23	1.17 ± 0.11	
NC(=O)N1c2ccccc2C=Cc2ccccc21 [Carbamazepine]	1.22 ± 0.13	1.38 ± 0.17	1.27 ± 0.14	1.15 ± 0.082	1.28 ± 0.055	1.29 ± 0.077		0.809 ± 0.24		0.615 ± 0.15	0.888 ± 0.19	1.2 ± 0.53	0.876 ± 0.19	1.21 ± 0.13	0.771 ± 0.14	0.857 ± 0.039	0.959 ± 0.19
OCCOCCN1CCN(C2=Nc3ccccc3Sc3ccccc32)CC1 [Quetiapine fumarate]	1.32 ± 0.037	1.36 ± 0.14	1.43 ± 0.11	1.05 ± 0.24	1.51 ± 0.059	1.35 ± 0.18	1.04 ± 0.34		0.887 ± 0.18	0.814 ± 0.21	1.08 ± 0.45	0.71 ± 0.15	0.903 ± 0.37	0.955 ± 0.14	0.883 ± 0.12	0.941 ± 0.12	

Shown with bars between the fields: part of the list above
SMILES | Hoechst total cell count ratio (hAMSC donor 1 [1]; [7]) | Hoechst total cell count ratio (hAMSC donor 1 [1]; [8]) | Hoechst total cell count ratio (hAMSC donor 1 [1]; [9]) | Hoechst total cell count ratio (hAMSC donor 2 [2]; [7]) | Hoechst total cell count ratio (hAMSC donor 2 [2]; [8]) | Hoechst total cell count ratio (hAMSC donor 2 [2]; [9]) | transgenic luciferase activity (hAMSC donor 1 [3]; [8]) | transgenic luciferase activity (hAMSC donor 2 [4]; [7]) | transgenic luciferase activity (hAMSC donor 2 [4]; [8]) | transgenic luciferase activity (hAMSC donor 2 [4]; [9]) | transfection efficiency (hAMSC donor 1 [5]; [7]) | transfection efficiency (hAMSC donor 1 [5]; [8]) | transfection efficiency (hAMSC donor 1 [5]; [9]) | transfection efficiency (hAMSC donor 2 [6]; [7]) | transfection efficiency (hAMSC donor 2 [6]; [8]) | transfection efficiency (hAMSC donor 2 [6]; [9]) | transgenic luciferase activity (hAMSC donor 1 [3]; [9])
CN1C(C(=O)Nc2ccccn2)=C(O)c2ccccc2S1(=O)=O [Piroxicam] | 1.03 ± 0.096 | 0.797 ± 0.088 | 0.635 ± 0.063 | 1.66 ± 0.79 | 1.1 ± 0.066 | 0.782 ± 0.25 | 4.06 ± 1.3 | 0.703 ± 0.17 | 0.475 ± 0.031 | 0.0793 ± 0.055 | 1.45 ± 0.18 | 2.27 ± 0.21 | 2.13 ± 0.47 | 1.24 ± 0.017 | 0.98 ± 0.05 | 0.787 ± 0.12 | 
CC(C)(C)NCC(O)c1cc(O)cc(O)c1 (configuration not stated) [Terbutaline sulfate] | 1.05 ± 0.045 | 0.747 ± 0.17 | 1.11 ± 0.11 | 1.12 ± 0.066 | 1.21 ± 0.15 | 1.3 ± 0.087 |  | 0.631 ± 0.072 |  | 0.351 ± 0.094 | 0.969 ± 0.32 | 1.14 ± 0.3 | 0.713 ± 0.14 | 1.14 ± 0.099 | 0.85 ± 0.2 | 0.993 ± 0.069 | 1.07 ± 0.08
